Reference: PubChem BioAssay AID1259331 (Drosophila RNAi Screening Center, 2017)
Aim: 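Knock-downs that alter ATP level after a high zinc chloride dose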 (primary screen). Cells: Drosophila S2R+ cells. Knock-down reagent: long dsRNA against Drosophila genes. Duration: 5 days (4 days knock-down, then 1 day zinc). Challenge: zinc chloride at 15 mM final level for 1 day. Detection: 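Total cellular ATP measured by luciferase luminescence as a viability proxy, turned into Z scores from three plate copies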. Direction: mean Z score: higher = more ATP than other wells, better survival under zinc; ATP luminescence: higher = more ATP, more viable cells. Active means: 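Hit when the absolute Z score is greater than 1.5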. Meaning of the calls: active = hit, ATP up or down; inactive = not a hit.
This is a random part of about 3,100 reagents tested. 126 of all reagents (4.1%) count as active. 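Calls are per reagent; zinc was so toxic that few knock-downs lowered ATP further, so most hits raise ATP.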 Raw values are not corrected between plates. Entries without a mark were called inactive. Names joined by + are all predicted targets of the reagent. Not stated in the record: the amount of reagent.

With CG43693 [DRSC09086], what does the deposit list?
mean Z score: -0.0591; ATP luminescence, replicate 1: 41548; ATP luminescence, replicate 2: 43348

For CG43693 [DRSC10625], what does the deposit list?
mean Z score: -0.556; ATP luminescence, replicate 1: 27302; ATP luminescence, replicate 2: 29496

What is on record for arr [DRSC07451]?
mean Z score: 0.108; ATP luminescence, replicate 1: 69733; ATP luminescence, replicate 2: 71145

With arr [DRSC27035], what was measured?
mean Z score: 0.366; ATP luminescence, replicate 1: 61799; ATP luminescence, replicate 2: 60872

For CG2938 [DRSC27919], how do the results read?
mean Z score: 0.115; ATP luminescence, replicate 1: 46834; ATP luminescence, replicate 2: 63136

Which result is listed for CG14857 [DRSC14981]?
mean Z score: -0.242; ATP luminescence, replicate 1: 37416; ATP luminescence, replicate 2: 55110

What did the screen give for CG14857 [DRSC39636]?
mean Z score: 0.0764; ATP luminescence, replicate 1: 60992; ATP luminescence, replicate 2: 60032

What did the screen give for l(1)1Bb + ebo [DRSC28174]?
mean Z score: -0.241; ATP luminescence, replicate 1: 57802; ATP luminescence, replicate 2: 52058

With l(1)1Bb + ebo [DRSC39798], what was measured?
mean Z score: -0.232; ATP luminescence, replicate 1: 51081; ATP luminescence, replicate 2: 54939

2 of these entries in another layout:
| gene | dsRNA | mean Z score | ATP luminescence, replicate 1 | ATP luminescence, replicate 2 |
| --- | --- | --- | --- | --- |
| arr | DRSC27035 | 0.366 | 61799 | 60872 |
| CG2938 | DRSC27919 | 0.115 | 46834 | 63136 |

Continued.
How did the screen score Toll-9 [DRSC11776]?
mean Z score: 0.621; ATP luminescence, replicate 1: 88366; ATP luminescence, replicate 2: 68988

How did the screen score CG7582 [DRSC16261]?
mean Z score: 0.0514; ATP luminescence, replicate 1: 65382; ATP luminescence, replicate 2: 68452

For CG7582 [DRSC39773], how do the results read?
mean Z score: -0.325; ATP luminescence, replicate 1: 50121; ATP luminescence, replicate 2: 53224

With mthl3 [DRSC06997], what does the deposit list?
mean Z score: -2.2 (active); ATP luminescence, replicate 1: 14395; ATP luminescence, replicate 2: 13881

Which result is listed for mthl3 [DRSC24927]?
mean Z score: 0.203; ATP luminescence, replicate 1: 62727; ATP luminescence, replicate 2: 57486

Which result is listed for CG31760 [DRSC02590]?
mean Z score: -0.607; ATP luminescence, replicate 1: 41916; ATP luminescence, replicate 2: 40201

For CG31760 [DRSC27108], how do the results read?
mean Z score: 0.43; ATP luminescence, replicate 1: 48955; ATP luminescence, replicate 2: 70990
